# At least one structure is not confirmed: it was looked up by name or label, or the drawing left a doubt.
# Test system: liver rhabdomyosarcoma (R1)
# Test: Treatment of liver rhabdomyosarcoma (R1) in rats with iv VTA, contrast enhanced MRI, macroscopy and microscopy
# Assay type: in vivo
# Conditions: 5 mg/kg iv
structure (smiles),measurement,setting,value
COc1ccc(/C=C\c2cc(OC)c(OC)c(OC)c2)cc1OP(=O)(O)O [CA-4P],Tumor vascular effect on contrast enhanced MRI,a couple of hours after therapy,Dramatic vascular shutdown
same,Tumor necrosis on contrast enhanced MRI,two days after therapy,massive central necrosis
same,Tumor periphery on photomicrograph,two days after therapy,peripheral tumor regrowth (T) due to incomplete therapy

# — patent US8741262B2, “Targeted radiotherapy” (Katholieke Universiteit Leuven, K.U. Leuven R&D, priority 2007, dated 2014)
